# According to the supplement of paper PMC11006884:
# Protein sequences, listed by entry. Tags and fused reporters are not part of them. Lines headed by an entry give the natural chain unless they say otherwise; changes in a name come on top.
# UniProt Q9UPN4: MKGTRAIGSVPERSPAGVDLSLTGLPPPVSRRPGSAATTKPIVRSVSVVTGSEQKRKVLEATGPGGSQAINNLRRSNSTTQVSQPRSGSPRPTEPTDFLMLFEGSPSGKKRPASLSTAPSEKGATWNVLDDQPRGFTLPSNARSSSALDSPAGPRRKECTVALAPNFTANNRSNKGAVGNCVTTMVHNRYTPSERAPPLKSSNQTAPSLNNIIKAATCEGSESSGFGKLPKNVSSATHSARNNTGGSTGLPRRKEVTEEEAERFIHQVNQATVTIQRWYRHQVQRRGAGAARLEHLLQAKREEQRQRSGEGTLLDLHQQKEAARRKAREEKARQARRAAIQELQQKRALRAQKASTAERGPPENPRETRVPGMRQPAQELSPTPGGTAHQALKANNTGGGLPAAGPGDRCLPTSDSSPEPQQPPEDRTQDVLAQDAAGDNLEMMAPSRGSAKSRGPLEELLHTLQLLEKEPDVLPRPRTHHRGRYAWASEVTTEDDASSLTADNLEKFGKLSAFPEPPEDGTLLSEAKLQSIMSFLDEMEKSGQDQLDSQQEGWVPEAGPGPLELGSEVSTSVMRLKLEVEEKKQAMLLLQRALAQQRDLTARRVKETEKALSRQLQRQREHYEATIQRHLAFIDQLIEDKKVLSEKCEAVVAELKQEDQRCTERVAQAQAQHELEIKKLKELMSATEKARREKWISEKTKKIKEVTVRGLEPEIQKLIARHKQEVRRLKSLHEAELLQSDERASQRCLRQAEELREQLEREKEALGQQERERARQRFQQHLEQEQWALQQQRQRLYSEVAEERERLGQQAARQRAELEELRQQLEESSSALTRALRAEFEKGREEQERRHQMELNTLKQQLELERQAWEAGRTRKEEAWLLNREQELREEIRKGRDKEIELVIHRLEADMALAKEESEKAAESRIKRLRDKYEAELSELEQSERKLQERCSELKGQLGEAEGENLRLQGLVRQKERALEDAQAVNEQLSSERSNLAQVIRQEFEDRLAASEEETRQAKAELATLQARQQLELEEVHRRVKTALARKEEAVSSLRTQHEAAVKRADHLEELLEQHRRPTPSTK
# UniProt Q9ULG1, whole entry, looked up: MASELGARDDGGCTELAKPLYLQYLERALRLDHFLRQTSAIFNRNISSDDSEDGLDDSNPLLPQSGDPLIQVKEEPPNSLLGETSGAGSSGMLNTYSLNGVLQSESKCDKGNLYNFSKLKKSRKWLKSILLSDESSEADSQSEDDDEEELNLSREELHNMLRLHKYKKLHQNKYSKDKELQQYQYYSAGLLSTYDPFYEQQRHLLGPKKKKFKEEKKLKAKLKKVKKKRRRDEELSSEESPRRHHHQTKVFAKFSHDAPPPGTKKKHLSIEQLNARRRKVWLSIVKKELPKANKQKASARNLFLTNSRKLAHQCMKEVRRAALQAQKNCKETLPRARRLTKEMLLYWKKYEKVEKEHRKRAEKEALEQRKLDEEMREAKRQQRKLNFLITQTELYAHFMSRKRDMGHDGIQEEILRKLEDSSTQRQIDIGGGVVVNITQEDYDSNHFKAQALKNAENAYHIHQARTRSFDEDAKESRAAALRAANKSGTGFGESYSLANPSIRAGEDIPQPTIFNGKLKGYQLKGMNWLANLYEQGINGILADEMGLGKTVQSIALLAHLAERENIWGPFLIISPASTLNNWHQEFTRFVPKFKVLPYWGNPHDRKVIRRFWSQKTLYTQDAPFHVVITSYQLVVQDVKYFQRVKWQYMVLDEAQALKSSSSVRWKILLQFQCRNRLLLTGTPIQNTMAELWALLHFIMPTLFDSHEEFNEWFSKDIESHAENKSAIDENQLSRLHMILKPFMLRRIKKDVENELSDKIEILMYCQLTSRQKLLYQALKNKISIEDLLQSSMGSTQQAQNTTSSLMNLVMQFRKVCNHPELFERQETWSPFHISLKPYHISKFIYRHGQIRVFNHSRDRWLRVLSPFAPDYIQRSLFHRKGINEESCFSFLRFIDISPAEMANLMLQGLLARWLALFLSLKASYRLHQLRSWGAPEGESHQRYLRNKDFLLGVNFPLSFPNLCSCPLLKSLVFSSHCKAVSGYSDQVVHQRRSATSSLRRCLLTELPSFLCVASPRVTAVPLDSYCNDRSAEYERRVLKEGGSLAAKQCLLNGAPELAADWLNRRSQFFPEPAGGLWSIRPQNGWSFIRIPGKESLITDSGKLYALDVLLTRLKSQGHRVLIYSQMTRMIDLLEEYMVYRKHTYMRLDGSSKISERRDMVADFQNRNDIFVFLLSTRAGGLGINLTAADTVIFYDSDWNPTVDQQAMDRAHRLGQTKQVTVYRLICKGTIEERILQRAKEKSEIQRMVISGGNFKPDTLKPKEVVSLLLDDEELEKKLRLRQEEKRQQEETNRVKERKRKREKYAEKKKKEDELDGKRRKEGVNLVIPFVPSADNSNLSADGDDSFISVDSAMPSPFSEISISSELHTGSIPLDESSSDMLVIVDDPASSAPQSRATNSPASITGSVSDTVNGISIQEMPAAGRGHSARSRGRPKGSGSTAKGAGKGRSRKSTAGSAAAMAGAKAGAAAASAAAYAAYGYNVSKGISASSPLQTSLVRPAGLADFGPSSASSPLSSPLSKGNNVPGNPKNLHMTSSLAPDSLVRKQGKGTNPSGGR
# UniProt Q9UMS0: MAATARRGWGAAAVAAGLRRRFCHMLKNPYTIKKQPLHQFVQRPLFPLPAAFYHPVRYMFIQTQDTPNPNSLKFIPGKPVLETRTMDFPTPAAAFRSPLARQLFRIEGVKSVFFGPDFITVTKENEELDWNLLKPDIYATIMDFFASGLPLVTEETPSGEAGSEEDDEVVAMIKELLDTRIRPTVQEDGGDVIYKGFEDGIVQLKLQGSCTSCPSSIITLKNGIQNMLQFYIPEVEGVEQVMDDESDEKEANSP
# UniProt Q9Y383: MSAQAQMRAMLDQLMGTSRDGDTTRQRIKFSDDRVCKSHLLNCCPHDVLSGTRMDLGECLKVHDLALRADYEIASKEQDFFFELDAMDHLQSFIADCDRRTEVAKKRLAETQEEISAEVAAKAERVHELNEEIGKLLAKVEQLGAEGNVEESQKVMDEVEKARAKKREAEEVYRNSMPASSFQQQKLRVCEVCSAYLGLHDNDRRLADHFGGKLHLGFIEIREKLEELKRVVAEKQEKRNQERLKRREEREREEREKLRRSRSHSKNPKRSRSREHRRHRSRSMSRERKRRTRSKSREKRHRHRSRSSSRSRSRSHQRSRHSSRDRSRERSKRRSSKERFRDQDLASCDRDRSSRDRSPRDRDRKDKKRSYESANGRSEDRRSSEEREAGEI
# UniProt Q9UJS0: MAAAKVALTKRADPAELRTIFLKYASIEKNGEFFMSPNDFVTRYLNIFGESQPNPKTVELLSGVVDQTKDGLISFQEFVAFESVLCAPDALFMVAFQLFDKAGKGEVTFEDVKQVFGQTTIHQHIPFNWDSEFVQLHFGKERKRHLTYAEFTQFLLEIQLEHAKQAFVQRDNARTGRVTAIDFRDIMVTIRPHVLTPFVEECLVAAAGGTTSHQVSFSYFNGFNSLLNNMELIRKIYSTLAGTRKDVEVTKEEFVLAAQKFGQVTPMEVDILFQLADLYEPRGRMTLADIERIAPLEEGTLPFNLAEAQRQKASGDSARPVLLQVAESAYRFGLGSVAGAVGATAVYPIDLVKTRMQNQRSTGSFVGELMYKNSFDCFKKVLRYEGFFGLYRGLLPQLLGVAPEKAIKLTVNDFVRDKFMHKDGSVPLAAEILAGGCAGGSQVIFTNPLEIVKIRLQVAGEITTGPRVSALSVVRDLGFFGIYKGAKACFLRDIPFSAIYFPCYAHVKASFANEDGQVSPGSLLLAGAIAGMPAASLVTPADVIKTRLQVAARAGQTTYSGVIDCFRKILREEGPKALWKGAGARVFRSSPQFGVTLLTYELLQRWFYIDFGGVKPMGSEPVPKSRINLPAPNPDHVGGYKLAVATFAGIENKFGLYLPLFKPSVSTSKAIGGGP
# UniProt Q9UKV3: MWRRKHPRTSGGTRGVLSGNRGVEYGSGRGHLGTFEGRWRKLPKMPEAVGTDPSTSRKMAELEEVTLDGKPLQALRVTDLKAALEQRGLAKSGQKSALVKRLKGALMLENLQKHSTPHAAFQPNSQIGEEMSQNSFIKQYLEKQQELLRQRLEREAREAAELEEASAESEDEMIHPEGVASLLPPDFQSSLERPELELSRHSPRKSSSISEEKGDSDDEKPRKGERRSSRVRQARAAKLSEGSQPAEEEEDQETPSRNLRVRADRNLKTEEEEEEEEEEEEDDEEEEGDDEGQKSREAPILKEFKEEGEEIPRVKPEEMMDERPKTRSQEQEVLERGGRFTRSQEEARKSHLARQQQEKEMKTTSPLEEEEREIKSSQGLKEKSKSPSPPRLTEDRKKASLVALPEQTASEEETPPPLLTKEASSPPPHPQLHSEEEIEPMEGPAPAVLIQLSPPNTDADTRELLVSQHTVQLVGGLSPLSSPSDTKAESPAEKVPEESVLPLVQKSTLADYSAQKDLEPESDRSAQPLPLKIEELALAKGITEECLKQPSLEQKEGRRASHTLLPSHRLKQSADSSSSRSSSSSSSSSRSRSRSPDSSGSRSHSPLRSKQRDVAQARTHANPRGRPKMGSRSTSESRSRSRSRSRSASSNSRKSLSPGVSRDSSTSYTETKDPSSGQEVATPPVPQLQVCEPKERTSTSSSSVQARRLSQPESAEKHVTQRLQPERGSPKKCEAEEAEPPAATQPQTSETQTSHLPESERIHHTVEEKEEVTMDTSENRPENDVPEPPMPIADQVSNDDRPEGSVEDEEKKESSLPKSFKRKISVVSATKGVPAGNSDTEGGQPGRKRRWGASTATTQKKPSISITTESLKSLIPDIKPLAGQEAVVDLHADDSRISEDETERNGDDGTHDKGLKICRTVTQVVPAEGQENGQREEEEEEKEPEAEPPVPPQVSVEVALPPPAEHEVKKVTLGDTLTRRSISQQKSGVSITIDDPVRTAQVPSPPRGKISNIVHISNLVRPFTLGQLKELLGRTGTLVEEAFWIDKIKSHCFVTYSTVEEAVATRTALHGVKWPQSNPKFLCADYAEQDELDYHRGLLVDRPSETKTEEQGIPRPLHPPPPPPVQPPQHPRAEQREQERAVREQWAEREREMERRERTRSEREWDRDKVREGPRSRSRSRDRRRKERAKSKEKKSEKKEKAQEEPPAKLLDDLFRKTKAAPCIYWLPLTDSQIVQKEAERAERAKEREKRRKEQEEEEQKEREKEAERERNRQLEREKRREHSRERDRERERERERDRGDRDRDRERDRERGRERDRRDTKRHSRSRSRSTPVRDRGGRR
# UniProt Q9UMS4: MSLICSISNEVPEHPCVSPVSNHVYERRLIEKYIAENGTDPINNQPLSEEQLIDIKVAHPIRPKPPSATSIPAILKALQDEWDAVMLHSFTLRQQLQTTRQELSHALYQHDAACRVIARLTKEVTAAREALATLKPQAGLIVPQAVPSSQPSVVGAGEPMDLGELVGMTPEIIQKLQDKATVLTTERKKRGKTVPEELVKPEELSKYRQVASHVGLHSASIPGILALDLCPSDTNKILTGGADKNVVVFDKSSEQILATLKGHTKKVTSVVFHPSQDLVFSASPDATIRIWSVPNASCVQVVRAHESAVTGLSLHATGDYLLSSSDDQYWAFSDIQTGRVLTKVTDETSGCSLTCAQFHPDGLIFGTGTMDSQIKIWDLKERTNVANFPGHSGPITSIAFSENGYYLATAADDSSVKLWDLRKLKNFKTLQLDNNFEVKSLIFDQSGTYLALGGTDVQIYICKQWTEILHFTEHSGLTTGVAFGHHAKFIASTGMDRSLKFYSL
# UniProt Q9Y3I0: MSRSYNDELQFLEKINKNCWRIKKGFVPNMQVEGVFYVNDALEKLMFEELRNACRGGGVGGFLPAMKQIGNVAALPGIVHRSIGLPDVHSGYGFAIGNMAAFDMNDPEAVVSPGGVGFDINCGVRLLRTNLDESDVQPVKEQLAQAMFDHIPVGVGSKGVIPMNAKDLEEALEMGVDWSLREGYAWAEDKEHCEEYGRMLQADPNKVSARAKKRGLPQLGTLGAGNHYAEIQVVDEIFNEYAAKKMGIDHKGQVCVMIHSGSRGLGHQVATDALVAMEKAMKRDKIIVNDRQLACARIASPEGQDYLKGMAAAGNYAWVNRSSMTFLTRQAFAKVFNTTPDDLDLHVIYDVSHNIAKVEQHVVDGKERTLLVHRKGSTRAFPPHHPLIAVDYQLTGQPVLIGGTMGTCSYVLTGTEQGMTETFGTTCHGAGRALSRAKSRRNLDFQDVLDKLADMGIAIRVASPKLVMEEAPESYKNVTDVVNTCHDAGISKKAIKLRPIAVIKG
# UniProt Q9UNK0: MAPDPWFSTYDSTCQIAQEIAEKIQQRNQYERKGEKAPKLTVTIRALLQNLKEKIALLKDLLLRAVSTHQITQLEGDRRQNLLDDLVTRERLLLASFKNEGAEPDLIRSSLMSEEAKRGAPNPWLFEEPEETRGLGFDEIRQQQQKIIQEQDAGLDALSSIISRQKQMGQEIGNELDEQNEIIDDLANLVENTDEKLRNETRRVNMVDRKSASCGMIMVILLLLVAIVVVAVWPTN
# Only a part is listed here, and it is no random draw.
# Compound: COC(=O)C#Cc1ccccc1 [methyl 3-phenylpropiolate]
# Experiment: log2 ratio of iodoacetamide-alkyne labeling of the cysteine site, DMSO over compound (competition); higher = stronger covalent engagement of the cysteine by the compound, active = 1 or more
# Conditions: 500 µM; treatment time 1 h; system: HEK293T cell lysate
# In short: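 The log2 competition ratio per cysteine is defined as mean reporter intensity in control channels over mean reporter intensity in compound channels. Lysate from HEK293T cells (2 mg/mL) received electrophile (500 µM) or vehicle for 1 h at ambient temperature, followed by iodoacetamide alkyne for 1 h. Samples were clicked to sCIP-TMT reagents, pooled, trypsin-digested overnight at 37 °C, streptavidin-enriched, acid-eluted and run on Orbitrap Eclipse LC-MS/MS with FAIMS, with quantification in FragPipe. Three replicates with duplicate channels were used, and any cysteine quantified in only one replicate was excluded.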
row,Target,log2 ratio of iodoacetamide-alkyne labeling
1,GTF3C4 C713 (UniProt Q9UKN8),inactive: 0.141
2,UniProt Q9Y3A3_C134,inactive: 0.13
3,UniProt Q9UPN4_C159,inactive: 0.5
4,AKAP8L C128 (UniProt Q9ULX6),inactive: 0.249
5,INO80 C13 (UniProt Q9ULG1),inactive: 0.492
6,EXOC6B C68 (UniProt Q9Y2D4),inactive: -0.0384
7,ATP6V0A2 C165 (UniProt Q9Y487),inactive: 0.321
8,DBNL C97 (UniProt Q9UJU6),inactive: 0.0952
9,MINPP1 C337 (UniProt Q9UNW1),inactive: 0.503
10,CORO1C C420 (UniProt Q9ULV4),inactive: 0.977
11,ANAPC7 C131 (UniProt Q9UJX3),inactive: 0.289
12,DERA C118 (UniProt Q9Y315),inactive: 0.275
13,SAP30BP C127 (UniProt Q9UHR5),active: 1.3
14,NFU1 C213 (UniProt Q9UMS0),inactive: 0.895
15,BAG5 C213 (UniProt Q9UL15),inactive: -0.128
16,NFU1 C210 (UniProt Q9UMS0),active: 1.06
17,EXOSC1 C15 (UniProt Q9Y3B2),inactive: 0.278
18,INTS6 C783 (UniProt Q9UL03),inactive: 0.438
19,PLAA C605 (UniProt Q9Y263),inactive: 0.176

# Exported as tab-separated lines: part of the list above
row	Target	log2 ratio of iodoacetamide-alkyne labeling
14	NFU1 C213 (UniProt Q9UMS0)	inactive: 0.895
17	EXOSC1 C15 (UniProt Q9Y3B2)	inactive: 0.278
19	PLAA C605 (UniProt Q9Y263)	inactive: 0.176

# (listing goes on)

row,Target,log2 ratio of iodoacetamide-alkyne labeling
1,TNRC6B C600 (UniProt Q9UPQ9),inactive: 0.638
2,LUC7L2 C43 (UniProt Q9Y383),inactive: -0.0371
3,SLC25A13 C503 (UniProt Q9UJS0),inactive: 0.184
4,SLC25A13 C565 (UniProt Q9UJS0),inactive: 0.102
5,CNOT7 C18 (UniProt Q9UIV1),inactive: 0.331
6,RWDD3 C17 (UniProt Q9Y3V2),inactive: -0.322
7,ACIN1 C1052 (UniProt Q9UKV3),inactive: -0.0441
8,BAG5 C118 (UniProt Q9UL15),inactive: 0.0776
9,PRPF19 C16 (UniProt Q9UMS4),inactive: 0.285
10,UniProt Q9Y2L5_C265,inactive: 0.104
11,UniProt Q9Y3I0_C54,inactive: 0.017
12,SNX6 C264 (UniProt Q9UNH7),inactive: -0.136
13,PRR12 C112 (UniProt Q9ULL5),inactive: 0.298
14,AGTPBP1 C558 (UniProt Q9UPW5),inactive: -0.228
15,SRRM2 C2130 (UniProt Q9UQ35),inactive: 0.654
16,HOOK1 C432 (UniProt Q9UJC3),inactive: 0.385
17,STX8 C14 (UniProt Q9UNK0),inactive: -0.148
18,ACOT9 C155 (UniProt Q9Y305),inactive: -0.184
